Results published in the supplement of paper PMC10727501.
Some of the results follow. Single values are uncertain here, since repeats match poorly.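 Researchers measured free-swimming zebrafish larvae's O-bend response probability to dark flashes (naive: first five; training: remaining flashes of four 60-flash blocks; test: later 60-flash block) and OMR turning toward alternating leftward/rightward LED motion. Six treated larvae were compared to sixty 0.1% DMSO controls, with |SSMD|≥2 marking a hit.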

system: Danio rerio larvae (5 dpf, TLF); test: Prob-Test (SSMD vs DMSO vehicle); higher = higher than vehicle (e.g. higher dark-flash O-bend response probability, or better optomotor performance); conditions: 10 µM; pre-incubation: 30-90 min

Row | SMILES | Prob-Test
1 | CC(C)(C)/[N+]([O-])=C/c1ccc(S(=O)(=O)[O-])cc1S(=O)(=O)[O-].[Na+].[Na+] | 0.392
2 | CC1(COc2ccc3c(c2)ncn3-c2ccc3cccc(N4CCC(N)CC4)c3n2)COC1 | 0.137
3 | Cl.Clc1ccc2nsnc2c1NC1=NCCN1 [Tizanidine HCl] | -0.998
4 | O=C1NC(=O)C(c2ccccc2)(c2ccccc2)N1 [Phenytoin] | -0.215
5 | CS(=O)(=O)O.O=C(Nc1cccc(Cl)c1)Nc1ncc(CCNc2ncnc3ccsc23)s1 [SNS-314 Mesylate] | 0.0641
6 | N#CSc1cc(SC#N)c(N)nc1N | -0.246
7 | Cc1nc2n(c(=O)c1CCN1CCC(c3noc4cc(F)ccc34)CC1)CCC[C@H]2O [Paliperidone (Invega)] | -0.551
8 | Br.CCCC(CCC)C(=O)OC1C[C@H]2CC[C@@H](C1)[N+]2(C)C (some centres undefined) [Anisotropine Methylbromide] | 0.208
9 | COc1cc(Nc2nc3ccccc3nc2NS(=O)(=O)c2ccc(NC(=O)c3ccc(C)c(OC)c3)cc2)cc(OC)c1 | 0.145

system: Danio rerio larvae (5 dpf, TLF); test: Prob-Naive (SSMD vs DMSO vehicle); higher = higher than vehicle (e.g. higher dark-flash O-bend response probability, or better optomotor performance); conditions: 10 µM; pre-incubation: 30-90 min

Row | SMILES | Prob-Naive
10 | CCc1cccc(CC)c1NC(=O)N1Cc2[nH]nc(NC(=O)c3ccc(N4CCN(C)CC4)cc3)c2C1 | -0.0535
11 | CCCc1nn(C)c2c(=O)[nH]c(-c3cc(S(=O)(=O)N4CCN(C)CC4)ccc3OCC)nc12.O=C(O)CC(O)(CC(=O)O)C(=O)O [Sildenafil Citrate] | -0.329
12 | N#Cc1c(O)c2c(-c3ccc(-c4ccccc4O)cc3)csc2[nH]c1=O | -0.283
13 | COc1cc(N2CCC(N)CC2)ccc1Nc1ncc(Cl)c(-c2c[nH]c3ccccc23)n1 | -0.315
14 | COc1ccc(C2=NC(c3ccc(Cl)cc3)C(c3ccc(Cl)cc3)N2C(=O)N2CCNC(=O)C2)c(OC(C)C)c1 (centres undefined) [Nutlin-3] | 0.135
15 | O=C1c2ccc(Nc3ccc(F)cc3F)cc2CCc2ccc(OC[C@H](O)CO)cc21 [Skepinone-L] | -0.102
16 | O=C1NC(=O)/C(=C/c2ccc(-c3ccc(F)cc3O)o2)S1 | -0.901
17 | Cc1c(Cc2ccc3ccccc3n2)c2cc(F)ccc2n1CC(=O)O | 0.287
18 | Cc1onc(-c2ccccc2)c1-c1ccc(S(N)(=O)=O)cc1 [Valdecoxib] | 0.131
19 | Cc1ccnc2c1NC(=O)c1cccnc1N2C1CC1 [Nevirapine] | 0.239
20 | COc1ccc(C(=O)CC(=O)c2ccc(C(C)(C)C)cc2)cc1 [Avobenzone] | -0.286
21 | COCCOc1ccc2c(c1)ncn2-c1ccc2cccc(N3CCC(N)CC3)c2n1 | 0.173
22 | NC(=O)c1cccnc1 [Nicotinamide (Vitamin B3)] | -0.503
23 | O=C(CCc1ccc(O)cc1)c1c(O)cc(O)cc1O[C@@H]1O[C@H](CO)[C@@H](O)[C@H](O)[C@@H]1O [Phlorizin] | 0.516
24 | O=c1c(O)c(-c2cc(O)c(O)c(O)c2)oc2cc(O)cc(O)c12 [Myricetin] | -0.119
25 | C[N+](C)(C)CC(O)CC(=O)O.[Cl-] (racemic) [DL-Carnitine HCl] | -0.286
26 | Oc1ccc([C@H]2COc3cc(O)ccc3C2)cc1 [Equol] | 0.0385
27 | N[C@@H]1CCCC[C@H]1N.O=C([O-])C(=O)[O-].[Pt+2] [Oxaliplatin] | -0.0954
28 | O=C(Oc1cc(S(=O)(=O)c2ccccc2)ccc1[N+](=O)[O-])c1ccc(Cl)cc1 | -0.642
29 | C=CCNC1=C2C[C@@H](C)C[C@H](OC)[C@H](O)[C@@H](C)/C=C(\C)[C@H](OC(N)=O)[C@@H](OC)/C=C\C=C(\C)C(=O)NC(=CC1=O)C2=O [17-AAG (Tanespimycin)] | 0.00516

Already shown: an excerpt of the list.
Row | SMILES | Prob-Naive
23 | O=C(CCc1ccc(O)cc1)c1c(O)cc(O)cc1O[C@@H]1O[C@H](CO)[C@@H](O)[C@H](O)[C@@H]1O [Phlorizin] | 0.516
24 | O=c1c(O)c(-c2cc(O)c(O)c(O)c2)oc2cc(O)cc(O)c12 [Myricetin] | -0.119

Remaining list, next part:

Row | SMILES | Prob-Naive
30 | CC1=C(/C=C/C(C)=C\C=C\C(C)=C/C(=O)O)C(C)(C)CCC1 [Isotretinoin] | 0.0184
31 | Cc1ccc(F)c(NC(=O)Nc2ccc(-c3cccc4[nH]nc(N)c34)cc2)c1 [Linifanib (ABT-869)] | -0.115
32 | COc1ccccc1OCC(O)CN1CCN(CC(=O)Nc2c(C)cccc2C)CC1 (centres undefined) [Ranolazine] | -0.0954
33 | O=C(Nc1ccc2c(=O)cc(-c3nnn[nH]3)oc2c1)c1ccc(OCCCCc2ccccc2)cc1 [Pranlukast] | -0.0984
34 | CN(c1ncccc1CNc1nc(Nc2ccc3c(c2)CC(=O)N3)ncc1C(F)(F)F)S(C)(=O)=O | -0.694
35 | CC(C)[C@@H](C)/C=C/[C@@H](C)[C@@H]1CC[C@H]2C3=CC=C4C[C@@H](O)CC[C@]4(C)[C@@H]3CC[C@@]21C [Ergosterol] | -0.602
36 | CN(C)Cc1ccc(S(=O)(=O)n2ccc(/C=C/C(=O)NO)c2)cc1 [Resminostat] | 0.446
37 | Clc1ccc2c(c1)CCc1cccnc1C2=C1CCNCC1 [Desloratadine] | 0.6
38 | COc1cc(F)c(C(C)C)cc1-c1ccc(C(F)(F)F)cc1CN1C(=O)O[C@H](c2cc(C(F)(F)F)cc(C(F)(F)F)c2)[C@H]1C [Anacetrapib (MK-0859)] | 0.302
39 | COc1ccc(C2C(=O)c3ccccc3C2=O)cc1 [Anisindione] | -0.201
40 | COc1ccc(/C=C/C(=O)Nc2ccccc2C(=O)O)cc1OC [Tranilast] | -0.0365
41 | CC(C)(C)/[N+]([O-])=C/c1ccc(S(=O)(=O)[O-])cc1S(=O)(=O)[O-].[Na+].[Na+] | -0.101
42 | CC1(COc2ccc3c(c2)ncn3-c2ccc3cccc(N4CCC(N)CC4)c3n2)COC1 | 0.148
43 | Cl.Clc1ccc2nsnc2c1NC1=NCCN1 [Tizanidine HCl] | -0.183
44 | O=C1NC(=O)C(c2ccccc2)(c2ccccc2)N1 [Phenytoin] | -0.271
45 | CS(=O)(=O)O.O=C(Nc1cccc(Cl)c1)Nc1ncc(CCNc2ncnc3ccsc23)s1 [SNS-314 Mesylate] | -0.432
46 | N#CSc1cc(SC#N)c(N)nc1N | 0.0934
47 | Cc1nc2n(c(=O)c1CCN1CCC(c3noc4cc(F)ccc34)CC1)CCC[C@H]2O [Paliperidone (Invega)] | -0.148
48 | Br.CCCC(CCC)C(=O)OC1C[C@H]2CC[C@@H](C1)[N+]2(C)C (some centres undefined) [Anisotropine Methylbromide] | 0.0912
49 | COc1cc(Nc2nc3ccccc3nc2NS(=O)(=O)c2ccc(NC(=O)c3ccc(C)c(OC)c3)cc2)cc(OC)c1 | -0.0535
